Where no end group is shown, it is not given here. [ ]: non-standard residue; d: D form. Dopa = N[C@@H](Cc1ccc(O)c(O)c1)C(=O)O; Hyp = O=C(O)[C@@H]1C[C@@H](O)CN1
Experiment: general procedure: Fmoc solid-phase peptide synthesis; Fmoc-Lys(Boc)-Wang resin (GL Biochem); also Fmoc-Dopa(acetonide)-Wang, Fmoc-Thr(tBu)-Wang and Fmoc-Tyr(tBu)-Wang resin; TBTU/DIPEA
Conditions: whole synthesis, HPLC, Agilent ZORBAX Eclipse SB-C18, UV at 220 nm (Shimadzu LCMS-8050 / LC-20), scale of the general procedure 9.15 g resin, acetate
In the case of [Dopa]KPSY[Hyp][Hyp]TAK, the “crude HPLC purity” value is reported as 76.125%.
For AKPS[Dopa][Hyp]T[Dopa][Hyp]K, the “crude HPLC purity” value was 75.843%.
For “HCA-Ala-Lys-Pro-Ser-Tyr-Hyp-Thr-Tyr-Hyp-Lys”, the “crude HPLC purity” value was 77.957%.
In the case of AKPSY[Hyp]T[Dopa][Hyp]K[Dopa], the “crude HPLC purity” value is reported as 74.934%.
In the case of “Ala-Lys-Pro-Ser-DOPA-Hyp-Hyp-Thr-DOPA-Lys-Dopamine”, the “crude HPLC purity” value is reported as 70.822%.
In the case of AKPS[Dopa][Hyp]T[Dopa][Hyp]K[Dopa], the “crude HPLC purity” value is reported as 78.867%.
For AKPSY[Hyp]T[Dopa][Hyp]K, the “crude HPLC purity” value was 79.176%.
In the case of “Ala-Lys-Pro-Ser-Tyr-Hyp-Hyp-Thr-DOPA-Lys-Dopamine”, the “crude HPLC purity” value is reported as 69.173%.
In the case of [Dopa]KPSY[Hyp]TA[Hyp]K, the “crude HPLC purity” value is reported as 78.312%.
In the case of [Dopa]AKPS[Dopa][Hyp][Hyp]T[Dopa]K, the “crude HPLC purity” value is reported as 76.947%.
With AKPSY[Hyp]TY[Hyp]K the “crude HPLC purity” value was 77.392%.
With [Dopa]KPS[Dopa][Hyp][Hyp]TAK the “crude HPLC purity” value was 74.934%.
For AKPSY[Hyp][Hyp]TYK[Dopa], the “crude HPLC purity” value was 79.393%.
With AKPS[Dopa][Hyp][Hyp]T[Dopa]K[Dopa] the “crude HPLC purity” value was 77.876%.
In the case of [Dopa]AKPSY[Hyp]T[Dopa][Hyp]K, the “crude HPLC purity” value is reported as 79.853%.
With “Ala-Lys-Pro-Ser-Tyr-Hyp-Thr-DOPA-Hyp-Lys-Dopamine” the “crude HPLC purity” value was 68.948%.
With KAKPS[Dopa][Hyp][Hyp]T[Dopa] the “crude HPLC purity” value was 77.392%.
In the case of [Dopa]AKPSY[Hyp][Hyp]T[Dopa]K, the “crude HPLC purity” value is reported as 77.865%.
In the case of [Dopa]KPS[Dopa][Hyp]TA[Hyp]K, the “crude HPLC purity” value is reported as 77.121%.
In the case of KAK[Hyp]SY[Hyp][Hyp]T[Dopa], the “crude HPLC purity” value is reported as 79.176%.
In the case of AKPSY[Hyp][Hyp]T[Dopa]K[Dopa], the “crude HPLC purity” value is reported as 78.938%.
In the case of KAK[Hyp]S[Dopa][Hyp][Hyp]T[Dopa], the “crude HPLC purity” value is reported as 75.843%.
For [Dopa]AKPSY[Hyp][Hyp]TYK, the “crude HPLC purity” value was 77.944%.
In the case of KAKPSY[Hyp][Hyp]T[Dopa], the “crude HPLC purity” value is reported as 79.832%.
For AKPSY[Hyp]TY[Hyp]K[Dopa], the “crude HPLC purity” value was 76.125%.
With [Dopa]AKPSY[Hyp]TY[Hyp]K the “final HPLC purity” value was 98%.
For “Ala-Lys-Pro-Ser-DOPA-Hyp-Thr-DOPA-Hyp-Lys-Dopamine”, the “crude HPLC purity” value was 69.532%.
In the case of “Ala-Lys-Pro-Ser-Tyr-Hyp-Hyp-Thr-Tyr-Lys-Dopamine”, the “crude HPLC purity” value is reported as 70.392%.
With “Ala-Lys-Pro-Ser-Tyr-Hyp-Thr-Tyr-Hyp-Lys-Dopamine” the “crude HPLC purity” value was 70.476%.
With [Dopa]AKPS[Dopa][Hyp]T[Dopa][Hyp]K the “crude HPLC purity” value was 75.123%.

Same assay, conditions: whole synthesis, UV 220 nm, scale of the general procedure 9.15 g resin, acetate
In the case of [Dopa]AKPSY[Hyp]TY[Hyp]K, the “crude HPLC purity” value is reported as 79.363%.
